Measurements taken from the supplement of paper PMC8256030.
Where a name gives a salt, the structure may show the parent alone. This is one part of the list. Single values are uncertain here, since repeats match poorly.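 HEK293T cells were given each compound shortly before transfection with a reporter in which red mCherry is followed by the SARS-CoV-2 frameshift element and then GFP in the −1 frame, so GFP appears only after frameshifting.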

Experiments:
[1] = system: SARS-CoV-2 -1 PRF reporter mCherry-FSE-GFP(-1); assay: mCherry (red) intensity as percent of control; higher = higher upstream reporter expression; conditions: 10 µM; 24 h; HEK293T
[2] = system: SARS-CoV-2 -1 PRF reporter mCherry-FSE-GFP(-1); assay: percent effect, decrease of GFP/mCherry ratio (-1 PRF reporter) relative to controls; higher = stronger frameshift inhibition; conditions: 10 µM; 24 h; HEK293T

## Nc1nc(=O)c(Br)c(-c2ccccc2)[nH]1 [bropirimine]
[1]
  mCherry: 134%
[2]
  percent effect: 9.55%

## NC(N)=NC(=O)Cc1c(Cl)cccc1Cl [Guanfacine·HCl]
[1]
  mCherry: 106%
[2]
  percent effect: -1.17%

## Cc1ncc(CO)c(C=O)c1O [Pyridoxal]
[1]
  mCherry: 90.3%
[2]
  percent effect: -4.98%

## O=S(=O)(O)c1ccc2[nH]c(-c3ccccc3)nc2c1 [ensulizole]
[1]
  mCherry: 90%
[2]
  percent effect: -1.15%

## Cc1ccc2nc(N)[nH]c(=O)c2c1Sc1ccncc1 [nolatrexed]
[1]
  mCherry: 25.7%
[2]
  percent effect: 1.49%

## COc1cc(C(=S)N2CCOCC2)ccc1O [vanitiolide]
[1]
  mCherry: 95.9%
[2]
  percent effect: -10.3%

## Cc1cc(C(C)(C)C)c(O)c(C(C)(C)C)c1
[1]
  mCherry: 96.9%
[2]
  percent effect: -0.518%

## CN1C(C(=O)Nc2ccccn2)=C(O)c2sc(Cl)cc2S1(=O)=O [Lornoxicam]
[1]
  mCherry: 82%
[2]
  percent effect: -2.15%

## C=C1CC[C@H](O)C/C1=C/C=C1\CCC[C@]2(C)[C@@H]([C@H](C)CC[C@@H](O)C(C)(C)O)CC[C@@H]12 [secalciferol]
[1]
  mCherry: 103%
[2]
  percent effect: -1.38%

## CCCC1O[C@@H]2C[C@H]3[C@@H]4CCC5=CC(=O)C=C[C@]5(C)[C@H]4[C@@H](O)C[C@]3(C)[C@]2(C(=O)CO)O1 (stereo partly drawn) [Uceris]
[1]
  mCherry: 119%
[2]
  percent effect: -8.91%

## N[C@@H](Cc1ccccc1)C(=O)O [phenylalanine]
[1]
  mCherry: 120%
[2]
  percent effect: 1.07%

## NC1=NCC2c3ccccc3Cc3ccccc3N12 (stereo not drawn) [epinastine]
[1]
  mCherry: 105%
[2]
  percent effect: -1.82%

## COC(=O)Nc1nc2cc(C(=O)c3ccccc3)ccc2[nH]1 [Mebendazol]
[1]
  mCherry: 98.9%
[2]
  percent effect: -1.59%

## CO[C@H]1/C=C/O[C@@]2(C)Oc3c(C)c(O)c4c(O)c(cc(O)c4c3C2=O)NC(=O)/C(C)=C\C=C\[C@H](C)[C@H](O)[C@@H](C)[C@@H](O)[C@@H](C)[C@H](OC(C)=O)[C@@H]1C
[1]
  mCherry: 67.2%
[2]
  percent effect: -5.14%
